Measured values reported in PubChem BioAssay AID328 (DTP/NCI, 2004).
The list is a part of this screen's results and no random one: it is rich in T/C values a quarter to a half above the control, in often repeated tests (any T/C) and in doses without a T/C. Further doses and runs are listed elsewhere. T/C: endpoint of the treated group in % of that of the vehicle group. Some doses have a count of surviving animals in place of a T/C: the source files T/C as zero there, which appears to mark a toxic dose or a test without result, not a measured value. Some survivor counts are full or nearly so, which does not show that the dose was tolerated: the source hardly ever lists a survival T/C far under the control, and the zero likely stands for such cases as well. Counts of survivors are from the toxicity check (mostly the fifth day) where no day follows; animals may have died later. Schedule codes are those of the source, read here as Q, the interval in days (D) or hours (H), X, the number of doses. Where survival is the endpoint, the PubChem record calls one and a half times the control and up active, and a quarter to a half above the control has no call in these data; cut-offs in other NCI protocols can differ.

Tested on: BDF1 mice, P388 leukemia ip, median survival T/C
Test: NCI In Vivo Anticancer Drug Screen. Data for tumor model P388 Leukemia (intraperitoneal) in B6D2F1 (BDF1) mice
Conditions: T/C endpoint: median survival time, higher T/C = longer survival
Method in brief: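 Survival ratio, drug arm over vehicle arm, in mice with a transplanted tumour.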

[1] = dose: 400.0 mg/kg/injection, schedule: Q04DX003 (ip), vehicle: saline

Q: Which T/C (dose: 1.8 mg/kg/injection, schedule: Q04DX003 (ip), vehicle: Klucel (hydroxypropylcellulose) (HPC)) does the source give for `NC(CSCc1ccc(N(CCCl)CCCl)cc1)C(=O)O` (configuration not stated) here?
A: Its T/C is 125 % of control.

Q: And the T/C (dose: 2.6 mg/kg/injection, schedule: Q04DX003 (ip), vehicle: Klucel (hydroxypropylcellulose) (HPC))?
A: Its T/C is 129 % of control.

Q: What about the T/C (dose: 4.0 mg/kg/injection, schedule: Q04DX003 (ip), vehicle: Klucel (hydroxypropylcellulose) (HPC)) of the same molecule?
A: The T/C was 141 % of control.

Q: What about the survivor count (dose: 100.0 mg/kg/injection, schedule: Q01DX009 (ip), vehicle: Klucel (hydroxypropylcellulose) (HPC)) of the same molecule?
A: Its survivor count is 6 of 6.

Q: What about the survivor count (dose: 132.0 mg/kg/injection, schedule: Q04DX003 (ip), vehicle: saline with Tween-80) of the same molecule?
A: Its survivor count is 5 of 6.

Q: And the survivor count (dose: 200.0 mg/kg/injection, schedule: Q01DX009 (ip), vehicle: Klucel (hydroxypropylcellulose) (HPC))?
A: Its survivor count is 6 of 6.

Q: And the survivor count (dose: 200.0 mg/kg/injection, schedule: Q04DX003 (ip), vehicle: saline with Tween-80)?
A: Its survivor count is 6 of 6.

Q: What about the survivor count (dose: 300.0 mg/kg/injection, schedule: Q04DX003 (ip), vehicle: saline with Tween-80) of the same molecule?
A: Its survivor count is 6 of 6.

Q: Which results are given for `O=C1c2ccc(O)cc2C(=O)c2ccc(O)cc21`?
A: T/C (dose: 100.0 mg/kg/injection, schedule: Q01DX009 (ip), vehicle: saline with Tween-80): 140 % of control; T/C (dose: 200.0 mg/kg/injection, schedule: Q01DX009 (ip), vehicle: saline with Tween-80): 125 % of control

Q: For `C[C@]12CCC(=O)C=C1CC[C@@H]1[C@@H]2CC[C@@]2(C)[C@H]1CC[C@]2(C)O`, which survivor count (dose: 400.0 mg/kg/injection, schedule: Q01DX009 (sc), vehicle: steroid suspending solution) is on record?
A: Its survivor count is 3 of 6.

Q: How did the T/C (dose: 400.0 mg/kg/injection, schedule: Q04DX003 (ip), vehicle: saline with Tween-80) turn out when `CCOc1ccc(Br)cc1/C=N/NS(=O)(=O)c1ccc(C)cc1` was run?
A: The T/C was 127 % of control.

Q: What does the source list for `COc1ccc(/C=C/C(=O)c2ccc(OC)c(OC)c2)cc1O`?
A: survivor count (dose: 100.0 mg/kg/injection, schedule: Q04DX003 (ip), vehicle: saline): 6 of 6; survivor count (dose: 200.0 mg/kg/injection, schedule: Q04DX003 (ip), vehicle: saline): 6 of 6; survivor count [1]: 6 of 6

Q: What does the source list for `CCNC(=O)c1cc2cccc(OC)c2oc1=N`?
A: survivor count (dose: 75.0 mg/kg/injection, schedule: Q01DX009 (ip), vehicle: saline): 7 of 7; survivor count (dose: 150.0 mg/kg/injection, schedule: Q01DX009 (ip), vehicle: saline): 7 of 7

Q: Which results are given for `CC(=O)Nc1ccc(N2CCN=N2)cc1`?
A: survivor count (dose: 115.0 mg/kg/injection, schedule: Q01DX009 (ip), vehicle: Klucel (hydroxypropylcellulose) (HPC)): 1 of 6; survivor count (dose: 170.0 mg/kg/injection, schedule: Q01DX009 (ip), vehicle: Klucel (hydroxypropylcellulose) (HPC)): 6 of 6

Q: For `NN1CCCC1`, which survivor count (dose: 200.0 mg/kg/injection, schedule: Q01DX009 (ip), vehicle: saline) is on record?
A: The survivor count was 2 of 6.

Q: And the survivor count (dose: 400.0 mg/kg/injection, schedule: Q01DX009 (ip), vehicle: saline)?
A: Its survivor count is 0 of 6.

Q: What about the survivor count [1] of the same molecule?
A: Its survivor count is 3 of 6.
